# Assay results as given in paper PMC8268705.
# The chains behind the UniProt entries cited, without tags or fusion partners. Where a name states a change or a piece, a line headed by the entry shows the natural chain unless it says otherwise. A line that says so, or that is headed by a name, gives the form on record, which may keep a tag or linker. Residues count along the entry.
# UniProt P48436: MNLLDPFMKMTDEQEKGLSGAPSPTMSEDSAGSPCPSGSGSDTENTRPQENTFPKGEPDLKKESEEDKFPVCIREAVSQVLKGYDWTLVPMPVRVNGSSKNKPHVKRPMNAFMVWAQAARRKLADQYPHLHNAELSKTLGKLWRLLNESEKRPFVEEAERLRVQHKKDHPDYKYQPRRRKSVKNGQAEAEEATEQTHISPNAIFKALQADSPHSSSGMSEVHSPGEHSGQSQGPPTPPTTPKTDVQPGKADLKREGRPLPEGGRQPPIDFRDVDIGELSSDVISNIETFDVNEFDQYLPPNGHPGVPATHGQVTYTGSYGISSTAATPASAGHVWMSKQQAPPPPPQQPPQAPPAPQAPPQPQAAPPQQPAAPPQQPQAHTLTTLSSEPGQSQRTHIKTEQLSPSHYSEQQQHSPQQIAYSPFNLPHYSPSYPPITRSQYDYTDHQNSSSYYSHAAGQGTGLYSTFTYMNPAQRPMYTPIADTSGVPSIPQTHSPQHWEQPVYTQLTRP
# GST-fused SOX9 fragment, N-terminal region (105-208): residues 105-208 of P48436
# Results are given in words; binding and its absence hold for the method and conditions named. Binding seen in cells or lysates may run through a third protein. Some binding calls cover weakened binding; strength is not graded here. For part of these data: Where a sequence is shown, tags or fusion partners need not be part of it.
# B1: Receptor-Interacting Protein of 140 kDa (RIP140), endogenous in SW480 cells (protein, UniProt P48552 1-1158)
# chain: MTHGEELGSDVHQDSIVLTYLEGLLMHQAAGGSGTAVDKKSAGHNEEDQNFNISGSAFPTCQSNGPVLNTHTYQGSGMLHLKKARLLQSSEDWNAAKRKRLSDSIMNLNVKKEALLAGMVDSVPKGKQDSTLLASLLQSFSSRLQTVALSQQIRQSLKEQGYALSHDSLKVEKDLRCYGVASSHLKTLLKKSKVKDQKPDTNLPDVTKNLIRDRFAESPHHVGQSGTKVMSEPLSCAARLQAVASMVEKRASPATSPKPSVACSQLALLLSSEAHLQQYSREHALKTQNANQAASERLAAMARLQENGQKDVGSYQLPKGMSSHLNGQARTSSSKLMASKSSATVFQNPMGIIPSSPKNAGYKNSLERNNIKQAANNSLLLHLLKSQTIPKPMNGHSHSERGSIFEESSTPTTIDEYSDNNPSFTDDSSGDESSYSNCVPIDLSCKHRTEKSESDQPVSLDNFTQSLLNTWDPKVPDVDIKEDQDTSKNSKLNSHQKVTLLQLLLGHKNEENVEKNTSPQGVHNDVSKFNTQNYARTSVIESPSTNRTTPVSTPPLLTSSKAGSPINLSQHSLVIKWNSPPYVCSTQSEKLTNTASNHSMDLTKSKDPPGEKPAQNEGAQNSATFSASKLLQNLAQCGMQSSMSVEEQRPSKQLLTGNTDKPIGMIDRLNSPLLSNKTNAVEENKAFSSQPTGPEPGLSGSEIENLLERRTVLQLLLGNPNKGKSEKKEKTPLRDESTQEHSERALSEQILMVKIKSEPCDDLQIPNTNVHLSHDAKSAPFLGMAPAVQRSAPALPVSEDFKSEPVSPQDFSFSKNGLLSRLLRQNQDSYLADDSDRSHRNNEMALLESKNLCMVPKKRKLYTEPLENPFKKMKNNIVDAANNHSAPEVLYGSLLNQEELKFSRNDLEFKYPAGHGSASESEHRSWARESKSFNVLKQLLLSENCVRDLSPHRSNSVADSKKKGHKNNVTNSKPEFSISSLNGLMYSSTQPSSCMDNRTFSYPGVVKTPVSPTFPEHLGCAGSRPESGLLNGCSMPSEKGPIKWVITDAEKNEYEKDSPRLTKTNPILYYMLQKGGNSVTSRETQDKDIWREASSAESVSQVTAKEELLPTAETKASFFNLRSPYNSHMGNNASRPHSANGEVYGLLGSVLTIKKESE
# B2: in vitro translated 35S-labeled RIP140 (protein, UniProt P48552 1-1158)
# chain: MTHGEELGSDVHQDSIVLTYLEGLLMHQAAGGSGTAVDKKSAGHNEEDQNFNISGSAFPTCQSNGPVLNTHTYQGSGMLHLKKARLLQSSEDWNAAKRKRLSDSIMNLNVKKEALLAGMVDSVPKGKQDSTLLASLLQSFSSRLQTVALSQQIRQSLKEQGYALSHDSLKVEKDLRCYGVASSHLKTLLKKSKVKDQKPDTNLPDVTKNLIRDRFAESPHHVGQSGTKVMSEPLSCAARLQAVASMVEKRASPATSPKPSVACSQLALLLSSEAHLQQYSREHALKTQNANQAASERLAAMARLQENGQKDVGSYQLPKGMSSHLNGQARTSSSKLMASKSSATVFQNPMGIIPSSPKNAGYKNSLERNNIKQAANNSLLLHLLKSQTIPKPMNGHSHSERGSIFEESSTPTTIDEYSDNNPSFTDDSSGDESSYSNCVPIDLSCKHRTEKSESDQPVSLDNFTQSLLNTWDPKVPDVDIKEDQDTSKNSKLNSHQKVTLLQLLLGHKNEENVEKNTSPQGVHNDVSKFNTQNYARTSVIESPSTNRTTPVSTPPLLTSSKAGSPINLSQHSLVIKWNSPPYVCSTQSEKLTNTASNHSMDLTKSKDPPGEKPAQNEGAQNSATFSASKLLQNLAQCGMQSSMSVEEQRPSKQLLTGNTDKPIGMIDRLNSPLLSNKTNAVEENKAFSSQPTGPEPGLSGSEIENLLERRTVLQLLLGNPNKGKSEKKEKTPLRDESTQEHSERALSEQILMVKIKSEPCDDLQIPNTNVHLSHDAKSAPFLGMAPAVQRSAPALPVSEDFKSEPVSPQDFSFSKNGLLSRLLRQNQDSYLADDSDRSHRNNEMALLESKNLCMVPKKRKLYTEPLENPFKKMKNNIVDAANNHSAPEVLYGSLLNQEELKFSRNDLEFKYPAGHGSASESEHRSWARESKSFNVLKQLLLSENCVRDLSPHRSNSVADSKKKGHKNNVTNSKPEFSISSLNGLMYSSTQPSSCMDNRTFSYPGVVKTPVSPTFPEHLGCAGSRPESGLLNGCSMPSEKGPIKWVITDAEKNEYEKDSPRLTKTNPILYYMLQKGGNSVTSRETQDKDIWREASSAESVSQVTAKEELLPTAETKASFFNLRSPYNSHMGNNASRPHSANGEVYGLLGSVLTIKKESE
# modifications: 35S-labelled
# Assays:
# [1] = target: T1, GST-fused RIP140 fragment, amino acids 683 to 916 (C-terminal region of RIP140) (UniProt P48552); assay: pull-down; purified GST fusion proteins incubated with 35S-labelled cell-free-synthesized proteins overnight at 4 °C in NETN buffer (0.5% NP-40, 1 mM EDTA, 20 mM Tris pH 8, 100 mM NaCl, 10 mM dithiothreitol, protease inhibitors); SDS-PAGE, Phosphorimager; only the target purified
# T1 sequence: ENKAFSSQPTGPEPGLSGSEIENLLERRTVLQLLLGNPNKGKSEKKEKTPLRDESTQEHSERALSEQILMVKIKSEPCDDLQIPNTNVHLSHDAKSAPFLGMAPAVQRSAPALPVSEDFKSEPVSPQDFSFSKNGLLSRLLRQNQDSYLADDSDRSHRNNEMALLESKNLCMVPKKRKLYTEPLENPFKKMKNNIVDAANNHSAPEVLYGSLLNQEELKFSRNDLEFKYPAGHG
# [2] = target: SOX9, endogenous in SW480 cells (human (endogenous in SW480)) (UniProt P48436); assay: proximity ligation; Duolink in situ PLA in fixed, permeabilised SW480 cells with primary anti-RIP140 and anti-SOX9 antibodies; signal only when the probes are within 40 nm
# [3] = target: GST-fused SOX9 fragment, N-terminal region (105-208) (UniProt P48436); assay: pull-down; purified GST fusion proteins incubated with 35S-labelled cell-free-synthesized proteins overnight at 4 °C in NETN buffer (0.5% NP-40, 1 mM EDTA, 20 mM Tris pH 8, 100 mM NaCl, 10 mM dithiothreitol, protease inhibitors); SDS-PAGE, Phosphorimager; only the target purified
molecule,measurement,setting,value
in vitro translated 35S-labeled SOX9 protein (from UniProt P48436 1-509),binding,[1],binds
B1,binding,[2],binds
B2,binding,[3],binds
